# Screening data

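Plate-reader measure of the Venus reporter marking one vaccinia stage in infected cells (the cell line is not named here); read time unknown.
The test concentration is not given here.
Percent change in Venus reporter signal; lower (more negative) values mean stronger inhibition of that viral stage.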

Values are in %.
The controls that fix the scale are not given here.
Common to all entries: measured here: Venus reporter, other viral stage.
This is a side read-out of the assay, for part of the compounds, not drawn at random.

Compound,activity change (Venus) (%)
CC(=O)N(C)C[C@@H]1Oc2cc(C#Cc3cccc(F)c3)ccc2S(=O)(=O)N([C@@H](C)CO)C[C@H]1C,-29.03
O=C(Cc1ccccc1)N1CC(=O)N2[C@H](CO)[C@@H](c3ccc(-c4ccc(F)cc4)cc3)[C@@H]2C1,-25.35
COc1cccc(S(=O)(=O)Nc2ccc3c(c2)[C@H]2C[C@H](CC(=O)NCc4ccccc4F)O[C@H](CO)[C@H]2O3)c1,-36.87
N#Cc1cccc(-c2ccc3c(c2)[C@H]2[C@H](CCN2S(=O)(=O)c2ccccc2F)[C@@H](CO)N3)c1,-32.34
C[C@H](CO)N1C[C@H](C)[C@H](CN(C)CC2CCCCC2)OCCCC[C@H](C)Oc2ccc(NC(=O)Cc3ccccc3)cc2C1=O,-59.46
C[C@@H]1CCCCO[C@H](CN(C)Cc2ccc(Cl)c(Cl)c2)[C@H](C)CN([C@@H](C)CO)C(=O)c2cc(NC(=O)c3ccccc3)ccc2O1,-26.81
O=C(C1CCCCC1)N1CC(=O)N2[C@H](C1)[C@H](c1ccc(C#Cc3cccc(F)c3)cc1)[C@@H]2CO,-82.89
COc1ccc(S(=O)(=O)N(C)C[C@@H]2Oc3ncc(/C=C/c4ccccc4)cc3C(=O)N([C@H](C)CO)C[C@@H]2C)cc1,-44
Cc1ccc(-c2ccc3c(c2)O[C@@H](CN(C)Cc2ccccc2)[C@@H](C)CN([C@H](C)CO)S3(=O)=O)cc1,-62.82
C[C@@H]1CN([C@H](C)CO)C(=O)c2cccc(NC(=O)Nc3ccc(F)cc3)c2O[C@@H]1CN(C)Cc1ccc(-c2ccccc2)cc1,-35.57
C[C@H](CO)N1C[C@H](C)[C@H](CN(C)C(=O)Nc2ccc(F)cc2)Oc2c(NC(=O)Nc3ccccc3)cccc2C1=O,-24.25
C[C@@H]1CN([C@H](C)CO)C(=O)c2cc(NS(=O)(=O)c3ccccc3)ccc2O[C@H]1CN(C)Cc1ccc(Oc2ccccc2)cc1,-27.76
Cc1ccc(S(=O)(=O)Nc2ccc3c(c2)C(=O)N([C@H](C)CO)C[C@H](C)[C@@H](CN(C)C(=O)NC2CCCCC2)OCCCC[C@H](C)O3)cc1,-30.58
Cc1ccccc1S(=O)(=O)N1[C@@H](C#N)[C@@H](c2ccc(C#CC3CCCC3)cc2)[C@@H]1CO,-39.65
C[C@H](CO)N1C[C@H](C)[C@H](CN(C)Cc2ccc(-c3ccccc3)cc2)Oc2c(NC(=O)NC3CCCCC3)cccc2C1=O,-34.9
C[C@@H]1CCCCO[C@@H](CN(C)Cc2ccc3c(c2)OCO3)[C@H](C)CN([C@H](C)CO)C(=O)c2cc(NC(=O)C3CCCCC3)ccc2O1,-49.55
COc1ccc(S(=O)(=O)Nc2ccc3c(c2)CC(=O)N([C@H](C)CO)C[C@H](C)[C@@H](CN(C)Cc2ccc(Oc4ccccc4)cc2)O3)cc1,-58.62
C[C@@H]1CCCCO[C@@H](CN(C)Cc2ccc(Cl)c(Cl)c2)[C@H](C)CN([C@@H](C)CO)C(=O)c2cc(NC(=O)Nc3ccccc3)ccc2O1,-38.88
COc1ccc(NC(=O)Nc2cccc3c2O[C@@H](CN(C)Cc2ccc(Oc4ccccc4)cc2)[C@@H](C)CN([C@H](C)CO)C3=O)cc1,-33.72
Fc1ccc(-c2ccc(C3[C@@H]4CN(Cc5nccs5)C[C@H]3N4)cc2)cc1 (stereo partly specified),-87.41
C[C@@H]1CN([C@H](C)CO)S(=O)(=O)c2ccc(-c3ccccc3)cc2O[C@@H]1CN(C)C(=O)c1ccc2c(c1)OCO2,-37.35
C[C@H]1CN([C@@H](C)CO)C(=O)c2ccccc2-c2ccccc2CO[C@@H]1CN(C)C(=O)[C@@H](Cc1ccccc1)N(C)C,-22.62
C[C@H]1CN([C@@H](C)CO)S(=O)(=O)c2ccc(/C=C/c3ccccc3)cc2O[C@H]1CN(C)C(=O)Nc1cccc(F)c1,-38.3
CCCNC(=O)N1[C@H](C#N)[C@H](c2ccc(C3=CCCCC3)cc2)[C@@H]1CO,-31.86
COc1ccccc1-c1ccc([C@@H]2[C@@H](C#N)N(C(=O)NC3CCCC3)[C@@H]2CO)cc1,-35.45
Cc1noc(C)c1S(=O)(=O)Nc1ccc2c(c1)C(=O)N([C@H](C)CO)C[C@@H](C)[C@@H](CN(C)S(=O)(=O)c1ccc(F)cc1)OCCCC[C@H](C)O2,-31.56
C[C@@H](C(=O)N(C)C[C@H]1OCc2ccccc2-c2c(n(C)c3ccccc23)C(=O)N([C@@H](C)CO)C[C@@H]1C)c1ccccc1,-44.97
C[C@H](CO)N1C[C@H](C)[C@@H](CN(C)C(=O)C2CCCCC2)OCCCC[C@H](C)Oc2ccc(NS(=O)(=O)c3ccc(F)cc3)cc2C1=O,-40.24
CCCC[C@@H](O)C1=C(COc2ccccc2)C[C@H]2C(=O)N(Cc3ccccc3)C(=O)[C@H]2[C@H]1CO,-34.77
CN1CCCCN2[C@H](CO)[C@@H](c3ccc(C#Cc4ccccc4F)cc3)[C@@H]2C1,-88.18
CN1C(=O)c2cc(NC(=O)c3cccc(F)c3)ccc2OC[C@H]2O[C@@H](CC(=O)NCC3CCCCC3)CC[C@H]21,-31.16
O=C(C1CC1)N1CC(=O)N2[C@H](CO)[C@H](c3ccc(C#Cc4cccc(F)c4)cc3)[C@H]2C1,-53.59
CCCC#Cc1ccc([C@@H]2[C@H]3CN(C(=O)NC4CCCC4)CCCCN3[C@H]2CO)cc1,-58.26
C[C@H](CO)N1C[C@H](C)[C@H](CN(C)Cc2ccc(Oc3ccccc3)cc2)Oc2ccc(NC(=O)Nc3ccc4c(c3)OCO4)cc2CC1=O,-26.68
C[C@H](CO)N1C[C@H](C)[C@H](CN(C)C(=O)C2CCC2)Oc2cc(C#Cc3ccncc3)ccc2S1(=O)=O,-39.45
O=S(=O)(c1ccc(F)cc1)N1CCCCN2[C@H](CO)[C@H](c3ccc(C4=CCCCC4)cc3)[C@H]2C1,-50.3
O=C(C[C@@H]1CC[C@H]2[C@@H](COC[C@H](O)CN2S(=O)(=O)c2ccc(F)cc2)O1)NCc1ccc(Cl)c(Cl)c1,-19.68
C[C@@H]1CN([C@H](C)CO)S(=O)(=O)c2ccc(C#CC3CCCC3)cc2O[C@@H]1CN(C)CC1CC1,-68.84
C[C@H]1CN([C@@H](C)CO)S(=O)(=O)c2ccc(C3=CCCCC3)cc2O[C@@H]1CN(C)Cc1cccnc1,-87.55
C[C@@H]1CN([C@@H](C)CO)C(=O)Cc2cc(NC(=O)Cc3cn(C)c4ccccc34)ccc2O[C@H]1CN(C)Cc1ccc(C(F)(F)F)cc1,-25.01
Cc1ccc(-c2ccc3c(c2)O[C@@H](CN(C)C(=O)Nc2ccc(F)cc2)[C@H](C)CN([C@@H](C)CO)S3(=O)=O)cc1,-27.95
C[C@@H]1CCCCO[C@@H](CN(C)S(=O)(=O)c2cccs2)[C@H](C)CN([C@@H](C)CO)C(=O)c2cc(NS(=O)(=O)c3ccc(Cl)cc3)ccc2O1,-45.77
C[C@@H]1CN([C@H](C)CO)S(=O)(=O)c2ccc(-c3ccccc3)cc2O[C@H]1CN(C)C(=O)C1CCCCC1,-49.25

The first 4 entries again:

* CC(=O)N(C)C[C@@H]1Oc2cc(C#Cc3cccc(F)c3)ccc2S(=O)(=O)N([C@@H](C)CO)C[C@H]1C | activity change (Venus) -29.03%
* O=C(Cc1ccccc1)N1CC(=O)N2[C@H](CO)[C@@H](c3ccc(-c4ccc(F)cc4)cc3)[C@@H]2C1 | activity change (Venus) -25.35%
* COc1cccc(S(=O)(=O)Nc2ccc3c(c2)[C@H]2C[C@H](CC(=O)NCc4ccccc4F)O[C@H](CO)[C@H]2O3)c1 | activity change (Venus) -36.87%
* N#Cc1cccc(-c2ccc3c(c2)[C@H]2[C@H](CCN2S(=O)(=O)c2ccccc2F)[C@@H](CO)N3)c1 | activity change (Venus) -32.34%

From PubChem BioAssay record AID1053133 (Broad Institute, 2014).